PMC7181751
No constants are given. Whether binding was seen depends on the method and setting. In cells and extracts the contact can be indirect.

Protein sequences, listed by entry. Tags and fused reporters are not part of them. Residues count along the entry.
UniProt P56726, residues 33-793: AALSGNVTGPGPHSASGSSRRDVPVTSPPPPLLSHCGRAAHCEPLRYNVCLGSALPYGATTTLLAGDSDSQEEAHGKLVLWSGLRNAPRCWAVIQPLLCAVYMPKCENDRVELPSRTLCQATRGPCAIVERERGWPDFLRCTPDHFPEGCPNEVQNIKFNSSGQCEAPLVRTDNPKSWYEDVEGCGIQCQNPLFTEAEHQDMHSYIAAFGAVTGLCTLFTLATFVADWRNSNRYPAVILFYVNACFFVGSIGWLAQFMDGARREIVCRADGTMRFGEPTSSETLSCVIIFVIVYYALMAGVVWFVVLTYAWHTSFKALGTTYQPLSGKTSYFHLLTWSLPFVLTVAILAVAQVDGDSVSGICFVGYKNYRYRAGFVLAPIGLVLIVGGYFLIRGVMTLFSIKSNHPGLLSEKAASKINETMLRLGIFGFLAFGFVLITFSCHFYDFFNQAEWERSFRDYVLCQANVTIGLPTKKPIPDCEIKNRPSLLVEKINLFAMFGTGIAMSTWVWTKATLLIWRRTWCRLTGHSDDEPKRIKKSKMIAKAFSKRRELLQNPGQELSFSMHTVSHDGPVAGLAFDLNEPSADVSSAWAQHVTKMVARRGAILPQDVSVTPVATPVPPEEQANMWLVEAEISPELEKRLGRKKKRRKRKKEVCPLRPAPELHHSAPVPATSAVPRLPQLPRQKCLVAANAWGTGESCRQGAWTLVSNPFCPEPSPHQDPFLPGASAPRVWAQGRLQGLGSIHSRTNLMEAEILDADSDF

Molecular target: T1, Gas1 (Growth arrest-specific gene 1), endogenous (mouse (endogenous in NIH3T3)) (UniProt Q01721)
T1 sequence: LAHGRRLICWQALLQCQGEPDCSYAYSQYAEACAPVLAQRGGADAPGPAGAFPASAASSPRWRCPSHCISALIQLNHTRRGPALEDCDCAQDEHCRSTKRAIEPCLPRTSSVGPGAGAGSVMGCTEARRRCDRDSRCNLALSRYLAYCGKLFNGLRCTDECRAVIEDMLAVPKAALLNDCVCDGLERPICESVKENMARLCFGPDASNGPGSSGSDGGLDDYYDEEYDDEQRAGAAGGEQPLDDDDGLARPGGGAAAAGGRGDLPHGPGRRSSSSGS
Assay: co-IP; NIH3T3/Cas9 Ptch1 KO cells transfected with Myc-tagged Ptch2, unstimulated (no Shh); IP of Ptch2 and reciprocal IP with antibody against endogenous Gas1, Western blot; lysis in 50 mM HEPES, 150 mM NaCl, 10% glycerol, 1% Nonidet P-40, 1 mM EDTA; protein A/G-agarose

Substance: Smoothened (Smo), endogenous (from UniProt P56726 33-793) (receptor)
- binding: no binding
